# Library screening results

The filed quantity is “Percent Effect” (%). The controls that fix the scale are not given in the record; negative values are as filed. The compounds are a random part of those screened. Two or more numbers in one place are separate tests of the same structure; such repeats can differ widely.

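Viability assay of Plasmodium falciparum sporozoites; the read-out is not stated. The concentration is filed as 10 mM, unlikely as a test dose, so the dose is not known. Higher reads as lower viability (inferred: compounds with an IC50 in retests scored well above the rest). Strong results were mostly tested again. Of about 34,000 compounds tested this way, about 280 (0.84%) reached 50% or more in at least one test.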

Compound,effect
CN1C(=O)CC(c2ccccc2)C12CCN(c1ncccn1)CC2 (centres unmarked),7.751
COCCOc1ccc(NC(=O)C2CCC2)cn1,-9.128
CC(C)N(C)Cc1cn2c(n1)CN(C(=O)Cc1ccsc1)CC2.O=C(O)C(F)(F)F,-2.713
[H][C@]12CC[C@]([H])(CN(Cc3cnc(-c4cccc(OC)c4)s3)C1)N(C)C2=O,84.86 and 76.95
CCc1nccn1-c1nccnc1C1CCN(C(=O)COC)CC1,0.4674
CC(=O)N1CCCCC1c1cc(CO)[nH]n1 (centres unmarked),-16
COc1cccc(C(=O)N2CCCC(C(=O)CCc3ccccc3)C2)c1 (centres unmarked),-6.494
Cl.[H][C@]12CN(C(=O)NCC3CCCCC3)[C@]([H])(CN1)C2,-1.54
CC(=O)Nc1cc(C(=O)N2CCOCC2c2ccc(C)o2)ccc1F (centres unmarked),6.438
Cc1ccc2c(n1)N(Cc1cccnc1)CCN(Cc1cnn(C)c1)C2,4.024
CCn1ncc2c1C(COC)N(C(=O)CCc1ccccc1)CC2.O=C(O)C(F)(F)F (centres unmarked),11.26
CCN(Cc1ccncc1)CC1(O)CCN(C(=O)c2cccc(C)n2)C1 (centres unmarked),14.58
CCC(C#N)NC(=O)c1cc(Br)c2c(c1)OCCO2 (centres unmarked),6.244
Cc1cc2c(=O)n3c(nc2s1)CCN(Cc1cnc(C(C)C)nc1)CC3,-16.25
CCn1ccnc1CN1CCCN(C(=O)c2csc(C)n2)CC1,8.815
O=C(O)C(F)(F)F.[H][C@@]12CCCO[C@]1([H])[C@H](N(C)C)CN2C(=O)Cc1ccsc1,15.24
O=C(O)c1ccccc1-c1ccc(CN2CC(c3ccncn3)C2)o1,12.38
Cc1ccccc1CC(=O)N1C[C@@H](O)[C@H](N2CCN(C)CC2)C1,9.241
O=C(NCCCNc1ccc(C(F)(F)F)cn1)c1ccc2c(c1)OCO2,6.334
Cc1cc(C)n(-c2ccc(CNCc3ccc(F)cc3F)cn2)n1,0.2979
CCn1cnnc1CNC(=O)NC(C)c1cccs1 (centres unmarked),0.6541
COCc1cccc(CNC(=O)CN2CCCC2c2noc(C)n2)c1 (centres unmarked),-1.319
CC(CN1CCC(CCO)CC1)n1cnc2ccccc21 (centres unmarked),-16.85 and -31
N#Cc1csc(CNCCOc2ccccc2)c1,4.035
COCCNC(=O)C1(CCCc2cccnc2)CCCN1C (centres unmarked),16.89
Cc1n[nH]c(=O)c(C(=O)N2CCN(CCc3cccs3)CC2)c1C,16.25
Cc1c2ncn(CC(=O)c3ccccc3)c(=O)c2nn1C,18.06
CCc1noc(C(C)N(C)CC(=O)Nc2c(C)cccc2C)n1 (centres unmarked),-17.59
Cc1ccc(C(C(=O)O)N2CCCN(Cc3ccccn3)CC2)c(F)c1 (centres unmarked),-16.21
CCS(=O)(=O)c1ccc(N2CCC(NC(C)=O)CC2)cc1,-0.2146
CC(Cn1cccn1)NC(=O)Cc1cccs1 (centres unmarked),-10.78
Cc1noc(C)c1CN1CCCC2(CCN(CC3CCCC3)C2)C1.O=C(O)C(F)(F)F (centres unmarked),6.679
COc1cccc(S(=O)(=O)N2CCC(O)(CN(C)C)C2)c1 (centres unmarked),-10.6
CCCC(=O)N1CCC(c2cc[nH]n2)C1 (centres unmarked),-7.801
Cn1cnc(S(=O)(=O)N2CCCc3cc(F)cc(F)c32)c1Cl,-14.46
N#Cc1ccc(CN(CC(N)=O)C2CCCC2)cc1,6.118
CN1CCCC1c1cncc(C(=O)NCCN2CCCCC2)n1 (centres unmarked),-11.04
O=C(O)C(F)(F)F.O=C(O)C(F)(F)F.[H][C@]12CCN(c3ncc(F)cn3)[C@@]1([H])C[C@@H](C(=O)NCc1cccnc1)O2,12.41
O=C(NCCOc1ccc(C(F)(F)F)cn1)c1ccoc1,1.306
Cc1nc(C2CCCN(C(=O)c3ccnc(N(C)C)c3)C2)no1 (centres unmarked),1.623
O=C(CN1CCC(c2ccnn2CCO)CC1)NCc1ccco1,8.643
COCC(=O)N1CCN(Cc2cccnc2)c2ncccc2C1.O=C(O)C(F)(F)F.O=C(O)C(F)(F)F,-6.071
CN(CC(=O)N1CCCC1c1noc(C2CC2)n1)Cc1ccccc1 (centres unmarked),4.052
CC(=O)Nc1nc(C(=O)NC(C)c2ccc(F)cc2)cs1 (centres unmarked),-7.861
CC(Cn1cccn1)NCc1nc(-c2cccc(Cl)c2)no1 (centres unmarked),0.8965
O=C(Cc1ccccc1)N1CCN(Cc2noc(C3CC3)n2)CC1,-17.18
Cn1cc(NC(=O)N2CCC2c2ccccc2)ccc1=O (centres unmarked),2.442
[H][C@@]12CCN(Cc3c(C)noc3C)C[C@@]1([H])O[C@H](c1nccs1)C2,-9.143
Cc1nn(C)c(N2CCOCC2)c1CNC1CCC(O)CC1 (centres unmarked),15.22
CCNc1cc2c(nn1)CCN(C(=O)c1c(C)noc1C)C2,-6.181
CNS(=O)(=O)Cc1ccc(CNc2cncc(-n3cccn3)n2)cc1,-5.724
O=C1CC2(CCCC2)CC(=O)N1Cc1nc2ncccn2n1,-19.93
CN(C)CC1CN(Cc2ccc3c(c2)OCO3)Cc2nccn2C1.O=C(O)C(F)(F)F.O=C(O)C(F)(F)F (centres unmarked),-11.07
CC(=O)N1CCC(Cc2cccc(-c3ccnn3C)n2)CC1,1.52
CN(C)S(=O)(=O)N1CCC(c2ccncn2)CC1,0.7791
O=C(O)C(F)(F)F.[H][C@]12CCN(c3cccc(C)n3)C[C@@]1([H])OCCN(C(=O)c1ccco1)C2,4.037
CC1N(c2cnn(C)c2)C(=O)COC12CCN(Cc1ccco1)CC2.O=C(O)C(F)(F)F (centres unmarked),14.3
O=C(O)C(F)(F)F.[H][C@]12CN(c3nncs3)C[C@@]1(C(=O)O)CCCN(C1CCOC1)C2 (some centres unmarked),8.056
Cc1cnccc1-n1nc(C(C)C)nc1CCc1cnccn1,-19.47 and -18.17
CC(C)Cc1noc(CN(C)C(=O)C2COc3ccccc3C2)n1 (centres unmarked),-2.181
O=S(=O)(NCc1ccccc1)Nc1ccc(-n2cncn2)cc1,-3.231
CC(C)(C)OC(=O)N1CCN(C(=O)c2sccc2C2CC2)CC1,-15.04
O=C(c1ccoc1)N1CCc2ncc(Cn3cccn3)n2CC1,8.938

Once more, the final 4:

CC(C)Cc1noc(CN(C)C(=O)C2COc3ccccc3C2)n1 (centres unmarked) read -2.181%.
O=S(=O)(NCc1ccccc1)Nc1ccc(-n2cncn2)cc1 read -3.231%.
CC(C)(C)OC(=O)N1CCN(C(=O)c2sccc2C2CC2)CC1 read -15.04%.
O=C(c1ccoc1)N1CCc2ncc(Cn3cccn3)n2CC1 read 8.938%.

Data taken from ChEMBL document CHEMBL3988442, “University of Dundee, Small-Polar-MMV Screening Library” (2021).